Results reported in PubChem BioAssay AID743255 (National Center for Advancing Translational Sciences (NCATS), 2014).
About 910 (0.23%) of roughly 390,000 compounds were called active. The shares of active, inactive and inconclusive entries below differ from those in the screen. The call rests on the fitted dose curve; in most records, active means well fitted inhibition curve with a large enough effect; inconclusive means small, poorly fitted or top-dose-only effect; inactive means no such curve, though single readings can be large or run the other way. Where the call is inconclusive, the potency comes from a doubtful curve fit.

Amino acid sequences for entries named in this document (tags omitted). A change or cut given only in a name is not applied to a line headed by its entry.
UniProt O94782: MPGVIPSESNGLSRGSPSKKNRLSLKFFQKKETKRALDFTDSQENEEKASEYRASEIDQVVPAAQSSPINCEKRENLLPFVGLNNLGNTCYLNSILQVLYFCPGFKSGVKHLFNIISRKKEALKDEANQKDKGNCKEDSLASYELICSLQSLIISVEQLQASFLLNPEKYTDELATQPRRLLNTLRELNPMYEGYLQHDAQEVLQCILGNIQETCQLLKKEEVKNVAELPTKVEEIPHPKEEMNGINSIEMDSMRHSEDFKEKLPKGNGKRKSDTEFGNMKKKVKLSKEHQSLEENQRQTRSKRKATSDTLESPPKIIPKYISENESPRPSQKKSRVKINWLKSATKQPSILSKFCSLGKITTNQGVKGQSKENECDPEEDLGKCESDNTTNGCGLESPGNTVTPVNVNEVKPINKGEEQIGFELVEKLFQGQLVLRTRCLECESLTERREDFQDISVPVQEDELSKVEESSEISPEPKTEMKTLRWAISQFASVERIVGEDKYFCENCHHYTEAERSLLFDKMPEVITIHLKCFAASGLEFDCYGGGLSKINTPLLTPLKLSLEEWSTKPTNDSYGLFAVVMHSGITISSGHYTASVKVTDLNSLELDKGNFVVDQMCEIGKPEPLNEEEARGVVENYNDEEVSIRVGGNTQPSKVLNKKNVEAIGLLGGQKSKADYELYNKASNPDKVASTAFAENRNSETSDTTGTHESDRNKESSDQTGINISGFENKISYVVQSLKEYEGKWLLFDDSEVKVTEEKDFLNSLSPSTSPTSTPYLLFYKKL

Biological target: Ubiquitin carboxyl-terminal hydrolase 1 (Homo sapiens) (UniProt O94782)
Assay: Inhibitors of USP1/UAF1: Primary Screen; further: nearly all actives have a fitted effect of over 60% in size
Settings: recombinant USP1/UAF1, Ub-Rhodamine cleavage fluorescence; activity change, negative = inhibition: at 57.1 µM (top of the series)
How it was run: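 USP1/UAF1 complex (1 nM) preincubated 15 min at room temperature with compound, then Ub-Rho substrate (150 nM final) added. Kinetic fluorescence at 480/540 nm over 6 reads at 60 s intervals; 50 mM HEPES pH 7.8, 0.5 mM EDTA, 0.1 mg/ml BSA, 1 mM TCEP, 0.01% Tween-20.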
On the % scale 0 is the no-effect control and ±100 the full control effect; potency means the concentration at half of the fitted maximal effect.

Question: `C=C[C@]1(C)C=C2CC[C@H]3[C@@](C)(CCC[C@@]3(C)C(=O)O)[C@@H]2CC1` was tested. Which “activity change, negative = inhibition” value did it give?
Answer: inactive: 0.962%

Question: With `CCSc1cc(N2CCCC2)nc(-c2ccc(Cl)cc2)n1` as the compound, how does the Potency read?
Answer: inconclusive: 0.251 µM [inhibitor, full curve, poor fit]

Question: For `O=C1S/C(=C\c2cccs2)C(=O)N1c1ccc(O)cc1`, which “activity change, negative = inhibition” value is on record?
Answer: inactive: -20.4%

Question: Which Potency does the source give for `COc1ccc(OC)c(S(=O)(=O)N2CCCC(N3CCN(c4ccccc4)CC3)C2)c1` (stereo not drawn) here?
Answer: inconclusive: 4.47 µM [inhibitor, full curve, poor fit]

Question: For `CC(=O)Nc1ccc(NC(=O)CN(C)CC(=O)Nc2ccccc2Br)cc1`, which Potency is on record?
Answer: inconclusive: 7.94 µM [inhibitor, partial curve, poor fit]

Question: With `O=C(CN1CCN(Cc2ccccc2)CC1)N1CCCCCC1` as the compound, how does the “activity change, negative = inhibition” value read?
Answer: inactive: -10.5%

Question: How did the “activity change, negative = inhibition” value turn out when `CCn1cc(CN2CCC(C(=O)Nc3cccc(-c4cccc(OC)c4)c3)CC2)cn1` was run?
Answer: inactive: -5.54%

Question: How did the Potency turn out when `CCN1/C(=C/c2ccc3cc(C)ccc3[n+]2CC)Sc2cc(C)c(C)cc21` was run?
Answer: inconclusive: 39.8 µM [inhibitor, partial curve, poor fit]

Question: With `CN(C)N1C(=O)C2C3C=CC(O3)C2C1=O` (stereo not drawn) as the compound, how does the Potency read?
Answer: inconclusive: 39.8 µM [inhibitor, single point]

Question: With `COc1ccc(CN(C)C[C@@H]2OCc3cnnn3CCCC(=O)N([C@H](C)CO)C[C@H]2C)cc1` as the compound, how does the Potency read?
Answer: inconclusive: 0.282 µM [inhibitor, full curve, poor fit]

Question: With `COc1cccc(CNc2cccc3cccnc23)c1O` as the compound, how does the Potency read?
Answer: inconclusive: 28.2 µM [inhibitor, partial curve]

Question: With `C[C@@H]1CN([C@@H](C)CO)C(=O)CCCn2cc(nn2)CO[C@H]1CN(C)S(=O)(=O)c1ccc2ccccc2c1` as the compound, how does the Potency read?
Answer: inconclusive: 12.6 µM [inhibitor, partial curve, poor fit]

Question: For `Cc1cc(Sc2nnc(N)s2)c2ccccc2n1`, which “activity change, negative = inhibition” value is on record?
Answer: inactive: -7.83%

Question: For `O=c1nc(/C=C/c2cc([N+](=O)[O-])ccc2Cl)cc(C(F)(F)F)[nH]1`, which Potency is on record?
Answer: inconclusive: 6.31 µM [inhibitor, full curve, poor fit]

Question: For `CCCCCCCNC(=O)C1(CC2CC(c3cccc(Br)c3)=NO2)CCNCC1` (stereo not drawn), which Potency is on record?
Answer: inconclusive: 44.7 µM [inhibitor, partial curve]

Question: Which “activity change, negative = inhibition” value does the source give for `Cc1ccc(C(=O)N2CCCC(c3ccc(Cl)cc3)=N2)cc1` here?
Answer: inactive: -34.5%

Question: `Cc1cc(C)cc(NC(=O)CCCSc2nc3ccccc3[nH]2)c1` was tested. Which Potency did it give?
Answer: inconclusive: 50.1 µM [inhibitor, partial curve, poor fit]

Question: How did the “activity change, negative = inhibition” value turn out when `CCCCn1c(=O)[nH]c(=O)c2c1ncn2Cc1ccco1` was run?
Answer: inactive: -12.4%

Question: `CCC(=O)N1CCc2cc(Br)cc(S(=O)(=O)NCCc3ccc(OC)c(OC)c3)c21` was tested. Which Potency did it give?
Answer: inconclusive: 0.251 µM [inhibitor, full curve, poor fit]

Question: With `CN=C1C=C/C(=N/N=c2\ccn(O)cc2C)C=C1C` as the compound, how does the Potency read?
Answer: inconclusive: 28.2 µM [inhibitor, partial curve, poor fit]

Question: How did the Potency turn out when `COC(=O)c1ccc(COc2ccc(/C=C(\C#N)c3nc4ccccc4[nH]3)cc2OC)o1` was run?
Answer: inconclusive: 28.2 µM [inhibitor, partial curve]

Question: `Cc1nc(N)sc1-c1csc(Nc2ncccn2)n1` was tested. Which Potency did it give?
Answer: inconclusive: 5.01 µM [inhibitor, full curve, poor fit]

Question: How did the “activity change, negative = inhibition” value turn out when `CCN(CC(=O)NC1CCS(=O)(=O)C1)Cc1nc2c(Br)cc(Br)cc2c(=O)[nH]1` (stereo not drawn) was run?
Answer: inactive: -11.4%

Question: With `CCCCn1c(=O)[nH]c2nc3cc(N)ccc3nc2c1=O` as the compound, how does the Potency read?
Answer: active: 28.2 µM

Question: `C=CCSc1nnc(NC(=O)c2ccc3c(c2)OCCO3)s1` was tested. Which Potency did it give?
Answer: inconclusive: 0.112 µM [inhibitor, full curve, poor fit]

Question: `CC(C)C(=O)N1CCN(c2ccc(NC(=O)c3ccc([N+](=O)[O-])o3)cc2Cl)CC1` was tested. Which “activity change, negative = inhibition” value did it give?
Answer: inactive: -3.72%

Question: Which Potency does the source give for `CC(C)C[C@@H](CN1C(N)=NC[C@@H]1C)NC(=O)CC12CC3CC(CC(C3)C1)C2` here?
Answer: inconclusive: 8.91 µM [inhibitor, partial curve]

Question: For `CN(C)/C=C/C(=O)c1ccc2noc(-c3cccc(F)c3)c2c1`, which Potency is on record?
Answer: inconclusive: 28.2 µM [inhibitor, partial curve]

Question: With `Cc1ccc(N2C(=O)SC(Cc3ccccc3)C2=O)cc1` (stereo not drawn) as the compound, how does the “activity change, negative = inhibition” value read?
Answer: inactive: -15%

Question: For `Cc1ccc(Cl)cc1N1CCN(S(=O)(=O)c2c(C)[nH]c(C)c2C(=O)N2CCCCC2)CC1`, which Potency is on record?
Answer: inconclusive: 50.1 µM [inhibitor, partial curve, poor fit]

Question: Which Potency does the source give for `CN(Cc1ccccc1F)c1nc(-c2cccs2)nc2ccccc12` here?
Answer: inconclusive: 22.4 µM [inhibitor, single point]

Question: With `Cc1cccc(-c2cc(NC(=O)c3ccccc3C)n(-c3ccccc3)n2)c1` as the compound, how does the Potency read?
Answer: inconclusive: 35.5 µM [inhibitor, partial curve, poor fit]

Question: How did the Potency turn out when `CCN(c1cccc(C)c1)C(CNS(=O)(=O)c1ccccc1)c1ccccc1` (stereo not drawn) was run?
Answer: inconclusive: 0.282 µM [inhibitor, full curve, poor fit]

Question: For `Cc1c(C2(c3c(C)n(C)n(-c4ccccc4)c3=O)C(=O)Nc3ccc(F)cc32)c(=O)n(-c2ccccc2)n1C`, which “activity change, negative = inhibition” value is on record?
Answer: inactive: -12.6%

Question: How did the Potency turn out when `C[C@H]1CN([C@@H](C)CO)C(=O)CCCn2cc(nn2)CO[C@@H]1CN(C)S(=O)(=O)c1ccc(-n2cccn2)cc1` was run?
Answer: inconclusive: 0.282 µM [inhibitor, full curve]

Question: `CCc1cccc(NC(=O)Cn2c(C(=O)OC)cc3occc32)c1` was tested. Which “activity change, negative = inhibition” value did it give?
Answer: inactive: -16.3%

Question: With `CCCS(=O)(=O)c1c(S(=O)(=O)CCC)c2cc(C(C)(C)C)ccn2c1C(=O)c1ccc(OC)c(OC)c1` as the compound, how does the “activity change, negative = inhibition” value read?
Answer: inactive: 5.6%

Question: `O=C(CSc1nnc(-c2cccc(F)c2)o1)Nc1nncs1` was tested. Which Potency did it give?
Answer: inconclusive: 3.55 µM [inhibitor, partial curve]

Question: With `Cn1cccc1C1C=C(c2ccc(C(C)(C)C)cc2)Nc2ncnn21` (stereo not drawn) as the compound, how does the Potency read?
Answer: inconclusive: 31.6 µM [inhibitor, single point]

Question: `O=C(CSc1nnc(-c2ccc(O)cc2)o1)Nc1ccccc1` was tested. Which Potency did it give?
Answer: inconclusive: 3.98 µM [inhibitor, partial curve]

Question: For `CC(C)c1ccc(CNc2cc(N3CCCC3)ccc2[N+](=O)[O-])cc1`, which Potency is on record?
Answer: inconclusive: 0.251 µM [inhibitor, full curve, poor fit]

Question: Which Potency does the source give for `Cc1noc(NS(=O)(=O)c2ccc(NC(=O)c3ccccc3NS(=O)(=O)c3ccc(F)cc3)cc2)c1C` here?
Answer: inconclusive: 0.794 µM [inhibitor, partial curve]

Question: `O=[N+]([O-])c1cc([N+](=O)[O-])c(Oc2c(Cl)cccc2Cl)cc1NN1CCCCC1` was tested. Which Potency did it give?
Answer: inconclusive: 6.31 µM [inhibitor, full curve]

Question: How did the Potency turn out when `CCCCCCSc1cc(-c2nc3ccc(C)cn3c2NCc2ccccc2)ccc1OC` was run?
Answer: inconclusive: 50.1 µM [inhibitor, partial curve, poor fit]

Question: With `COc1cc(OC)cc(-c2nnc(SCc3c(F)cccc3Cl)o2)c1` as the compound, how does the “activity change, negative = inhibition” value read?
Answer: inactive: 5.54%

Question: With `Cc1coc2cc3oc(=O)c(CC(=O)NCCc4ccccc4F)c(C)c3cc12` as the compound, how does the Potency read?
Answer: inconclusive: 7.08 µM [inhibitor, full curve, poor fit]

Question: How did the Potency turn out when `CC1Nc2ncnc(N3CCN(c4ccccn4)CC3)c2N(Cc2ccccc2)C1=O` (stereo not drawn) was run?
Answer: inconclusive: 8.91 µM [inhibitor, partial curve, poor fit]

Question: `CC(=O)NC1=C(NC2CCS(=O)(=O)C2)C(=O)c2ccccc2C1=O` (stereo not drawn) was tested. Which Potency did it give?
Answer: inconclusive: 35.5 µM [inhibitor, partial curve]

Question: With `Cc1cc(-n2c(C)cc(C(=O)CSc3nncn3C)c2C)no1` as the compound, how does the Potency read?
Answer: inconclusive: 7.94 µM [inhibitor, partial curve, poor fit]

Question: Which Potency does the source give for `COC(=O)c1c(C)nn(-c2ccccc2)c1N` here?
Answer: inconclusive: 7.94 µM [inhibitor, partial curve]

Question: With `CCCC(=O)NC1CC(=O)N(c2ccc3c(c2)OCCO3)C1` (stereo not drawn) as the compound, how does the Potency read?
Answer: inconclusive: 0.501 µM [inhibitor, full curve, poor fit]

Question: How did the Potency turn out when `O=C(Nc1cccc(Cl)c1)N1Cc2ccccc2Oc2ncccc21` was run?
Answer: inconclusive: 0.251 µM [inhibitor, full curve, poor fit]

Question: `CCN(CC)C(=O)[C@H]1C[C@H](CC(=O)NCc2ccco2)C(=O)N2CCc3c([nH]c4ccc(Cl)cc34)[C@]12C` was tested. Which Potency did it give?
Answer: inconclusive: 50.1 µM [inhibitor, partial curve, poor fit]

Question: For `C[C@H]1CN([C@@H](C)CO)C(=O)Cc2cc(NC(=O)CCC(F)(F)F)ccc2O[C@H]1CN(C)CC1CC1`, which Potency is on record?
Answer: inconclusive: 39.8 µM [inhibitor, partial curve]

Question: For `CCOc1ccc(N(CC(=O)Nc2cccc(OC)c2)S(=O)(=O)c2c(C)noc2C)cc1`, which Potency is on record?
Answer: inconclusive: 2.82 µM [inhibitor, full curve, poor fit]

Question: For `CCN1C(=O)[C@H]2[C@@H](c3ccc(OC)cc3)N[C@]3(CCCN(CC4CCCCC4)C3=O)[C@H]2C1=O`, which Potency is on record?
Answer: inconclusive: 0.355 µM [inhibitor, full curve, poor fit]

Question: `CCOC(=O)c1c(C)n(C)c2cc([N+](=O)[O-])c(O)c([N+](=O)[O-])c12` was tested. Which “activity change, negative = inhibition” value did it give?
Answer: inactive: -16.2%

Question: For `Cc1ccnc(NS(=O)(=O)c2ccc(NC(=O)c3oc4ccc(F)cc4c3C)cc2)n1`, which Potency is on record?
Answer: inconclusive: 50.1 µM [inhibitor, partial curve, poor fit]

Question: How did the Potency turn out when `O=C(Cc1c(Cl)cccc1Cl)Nc1ccc(S(=O)(=O)Nc2ncccn2)cc1` was run?
Answer: inconclusive: 6.31 µM [inhibitor, single point]

Question: How did the Potency turn out when `Nc1cc2nsnc2cc1Br` was run?
Answer: active: 4.47 µM

Question: With `COc1ccc(CNC(=O)COC(=O)c2cncc(Br)c2)cc1` as the compound, how does the Potency read?
Answer: inconclusive: 39.8 µM [inhibitor, partial curve, poor fit]

Question: Which activity change, negative = inhibition does the source give for `Nc1cc2c(cc1Br)[nH]c(=O)c1ccccc12` here?
Answer: inconclusive: -33.4% [inhibitor]

Question: Which Potency does the source give for `Cc1c(C(=O)N2CCOCC2)oc2c1-c1nn(CC(=O)NCc3ccccc3)cc1CC2` here?
Answer: inconclusive: 35.5 µM [inhibitor, single point]
